# Measurements reported in article PMC12431657, “Discovery and mechanistic insights of dibenzoylmethane as a broad spectrum inhibitor of coronavirus” (PLOS Pathogens, 2025).
# Structures can show the parent of a compound that is named as a salt. Where two headings read alike, the source gives them in different places. Among all 3,300 compounds or so, about 60 (2%) showed an effect of 50% or more. This is one part of the list.
# Tested on: HCoV-OC43
# Parameters: species or system RD; HTS, protection from HCoV-OC43 induced cell death, luminescent cell viability (CellCounting-Lite 2.0), inhibition rate
# Details: 24 h post infection, 1 h compound pre-incubation, 10 µM, inhibitor
Compound,"OC43 Inhibition rate (OC43 Inhibition rate, 24 h) [%]",OC43 Inhibition rate [%]
C[N+]1(C)CCC[C@H]1C(=O)[O-] [Stachydrine hydrochloride],-0.8,–
O=c1c(O)c(-c2ccc(O)c(O)c2)oc2c(O[C@@H]3O[C@H](CO)[C@@H](O)[C@H](O)[C@H]3O)c(O)cc(O)c12 [Gossypin],–,0.2
CC1(C)CC[C@]2(C(=O)O[C@@H]3O[C@H](CO)[C@@H](O)[C@H](O)[C@H]3O)CC[C@]3(C)C(=CC[C@@H]4[C@@]5(C)CC[C@H](O[C@@H]6O[C@H](C(=O)O)[C@@H](O)[C@H](O)[C@H]6O[C@H]6OC[C@@H](O)[C@H](O)[C@H]6O)C(C)(C)[C@@H]5CC[C@]43C)[C@@H]2C1 [Pseudoginsenoside RT1],–,0.7
CC[C@@H](C(=O)[C@@H](C)[C@@H](O)[C@H](C)CCc1ccc(C)c(O)c1C(=O)O)[C@H]1O[C@](CC)([C@H]2CC[C@](O)(CC)[C@H](C)O2)C[C@@H]1C [Lasalocid (sodium)],-11.5,–
CC(C)(C(=O)O)C(=O)O [Dimethylmalonic acid],–,0.1
C[C@@H]1O[C@@H](OC[C@H]2O[C@@H](Oc3c(-c4ccc(O)c(O)c4)oc4cc(O)cc(O)c4c3=O)[C@H](O)[C@@H](O)[C@@H]2O)[C@H](O)[C@H](O)[C@H]1O [Rutin (hydrate)],0.4,–
CC(=O)O[C@H]1CC[C@]2(C)C3=C(CC[C@H]2C1(C)C)[C@]1(C)C[C@@H](O)[C@H]([C@@H](CCC=C(C)C)C(=O)O)[C@@]1(C)CC3 [3-O-Acetyl-16α-hydroxytrametenolic acid],–,-1.3
COc1cc(C[C@@H](CO)[C@H](CO)Cc2ccc(O)c(OC)c2)ccc1O [(+)-Secoisolariciresinol],2.3,–
CCCCCCCCCCCCCCCCC(C(=O)O)C(O)(CC(=O)O)C(=O)O (centres unmarked) [Agaric acid],–,6.3
COC(=O)CCCC(=O)O [5-Methoxy-5-oxopentanoic acid],–,5.1
O=C(O)[C@@H]1C[C@H](O)CN1 [cis-4-Hydroxy-L-proline],–,2.9
C=C1CCCc2c(ccc3c2C(=O)C(=O)c2c(C)coc2-3)/C(C)=C/CCc2c1ccc1c2C(=O)C(=O)c2c(C)coc2-1 [Neoprzewaquinone A],–,1.5
"Cc1cc2nc[nH]c2cc1C [5,6-Dimethyl-1H-benzo[d]imidazole]",–,-0.3
C1CNCCNCCNCCN1 [Cyclen],–,22.4
Oc1cc(O)c2c(c1)O[C@H](c1ccc(O)c(O)c1)[C@@H](O)C2 [(+)-Catechin hydrate],-0.3,–
CC1=CC(=O)CC(C)(C)[C@@]1(O)/C=C/C(C)=C\C(=O)O [Abscisic acid],-5.8,–

Compound,"OC43 Inhibition rate (OC43 Inhibition rate, 24 h) [%]",OC43 Inhibition rate [%]
OC[C@@H](O)[C@H](O)[C@H](O)[C@@H](O)CO [Dulcite],–,0.8
COc1ccc2c(c1OC)CC1c3c(cc4c(c3-2)OCO4)CCN1C (centres unmarked) [Crebanine],–,34.2
COc1ccc2c(c1OC)CN1CCc3cc4c(cc3C1C2)OCO4 (centres unmarked) [Tetrahydroberberine],–,-0.2
CC(=O)OCc1ccccc1 [Benzyl acetate],–,0
C=C1CCC[C@]2(C)CC[C@@H](C(C)(C)O)C[C@@H]12 [Beta-Eudesmol],–,2.4
C/C=C(\C)C(=O)O[C@@H]1[C@@H](OC(C)=O)[C@]2(C)[C@H](C(C)=O)CC[C@@]23O[C@]32CC[C@H]3C[C@@H](O[C@H]4C[C@@H](OC)[C@H](O[C@@H]5O[C@H](C)[C@@H](O)[C@@H](OC)[C@H]5O)[C@@H](C)O4)CC[C@]3(C)[C@@H]12 [Tenacissoside G],–,0.5
COc1c(O)cc2c(c1O)[C@@H]1O[C@H](CO)[C@@H](O)[C@H](O)[C@H]1OC2=O [Bergenin],–,0
C[C@H]1CC[C@@]2(OC1)O[C@H]1C[C@H]3[C@@H]4CC[C@@H]5C[C@@H](O[C@@H]6O[C@H](CO)[C@H](O)[C@H](O)[C@H]6O[C@@H]6O[C@H](CO)[C@@H](O)[C@H](O)[C@H]6O)CC[C@]5(C)[C@H]4CC[C@]3(C)[C@H]1[C@@H]2C [Timosaponin AIII],–,5.7
O=C(O)c1ccc(O)cc1 [4-Hydroxybenzoic acid],–,0.1
COc1ccc(C(C)=O)c(O)c1 [Paeonol],–,1.6
C[C@@H]1O[C@@H](O[C@@H]2[C@@H](O)[C@H](OCCc3ccc(O)c(O)c3)O[C@H](CO[C@@H]3O[C@H](CO)[C@@H](O)[C@H](O)[C@H]3O)[C@H]2OC(=O)/C=C/c2ccc(O)c(O)c2)[C@H](O)[C@H](O)[C@H]1O [Echinacoside],–,0
COC1=CC(=O)O[C@@H](/C=C/c2ccc3c(c2)OCO3)C1 [Methylsticin],–,-0.1
COc1cc([C@H]2Oc3cc([C@H]4Oc5cc(O)cc(O)c5C(=O)[C@@H]4O)ccc3O[C@@H]2CO)ccc1O [Silibinin],1.4,–
COc1ccc(-c2oc3cc(OC)c(OC)c(O)c3c(=O)c2OC)cc1O [Casticin],–,14.3
CC(=O)O[C@H]1CC[C@]2(C)[C@H]3CC=C4[C@@H]5CC(C)(C)CC[C@]5(C(=O)O)CC[C@@]4(C)[C@]3(C)CC[C@H]2C1(C)C [3-O-Acetyloleanolic acid],–,0.2
C[C@@H]1CC[C@]2(C(=O)O[C@@H]3O[C@H](CO)[C@@H](O)[C@H](O)[C@H]3O)CC[C@]3(C)C(=CC[C@@H]4[C@@]5(C)CC[C@H](O[C@@H]6OC[C@H](O)[C@H](O)[C@H]6O)C(C)(C)[C@@H]5CC[C@]43C)[C@@H]2[C@]1(C)O [Ziyuglycoside I],–,0.3

# An excerpt of these results, with tabs:
Compound	OC43 Inhibition rate (OC43 Inhibition rate, 24 h) [%]	OC43 Inhibition rate [%]
COc1ccc2c(c1OC)CN1CCc3cc4c(cc3C1C2)OCO4 (centres unmarked) [Tetrahydroberberine]	–	-0.2
CC(=O)OCc1ccccc1 [Benzyl acetate]	–	0
